Test results as given in the supplement of paper PMC6411743.
± gives the standard deviation of the averaged measurements. The list shows a part of the results.

By UniProt entry, the sequences of proteins in these tests, tags left out. Where a name states a change or a piece, a line headed by the entry shows the natural chain unless it says otherwise.
UniProt Q9C035: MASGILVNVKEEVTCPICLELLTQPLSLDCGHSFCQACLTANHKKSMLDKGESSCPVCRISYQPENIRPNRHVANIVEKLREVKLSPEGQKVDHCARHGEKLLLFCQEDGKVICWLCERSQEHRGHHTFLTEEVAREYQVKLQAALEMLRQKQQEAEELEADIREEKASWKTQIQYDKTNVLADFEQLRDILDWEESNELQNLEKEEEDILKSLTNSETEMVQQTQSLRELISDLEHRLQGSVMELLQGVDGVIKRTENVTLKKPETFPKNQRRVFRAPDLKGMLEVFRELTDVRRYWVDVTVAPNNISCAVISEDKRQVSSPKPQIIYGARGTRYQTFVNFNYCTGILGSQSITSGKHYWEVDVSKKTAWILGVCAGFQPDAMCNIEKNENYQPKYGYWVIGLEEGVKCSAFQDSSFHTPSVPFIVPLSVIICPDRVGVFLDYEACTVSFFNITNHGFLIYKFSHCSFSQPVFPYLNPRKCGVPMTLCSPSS
UniProt Q9BZL1: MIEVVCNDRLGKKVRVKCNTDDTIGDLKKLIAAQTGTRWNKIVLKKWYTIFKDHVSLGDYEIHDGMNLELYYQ
UniProt Q9NQT8: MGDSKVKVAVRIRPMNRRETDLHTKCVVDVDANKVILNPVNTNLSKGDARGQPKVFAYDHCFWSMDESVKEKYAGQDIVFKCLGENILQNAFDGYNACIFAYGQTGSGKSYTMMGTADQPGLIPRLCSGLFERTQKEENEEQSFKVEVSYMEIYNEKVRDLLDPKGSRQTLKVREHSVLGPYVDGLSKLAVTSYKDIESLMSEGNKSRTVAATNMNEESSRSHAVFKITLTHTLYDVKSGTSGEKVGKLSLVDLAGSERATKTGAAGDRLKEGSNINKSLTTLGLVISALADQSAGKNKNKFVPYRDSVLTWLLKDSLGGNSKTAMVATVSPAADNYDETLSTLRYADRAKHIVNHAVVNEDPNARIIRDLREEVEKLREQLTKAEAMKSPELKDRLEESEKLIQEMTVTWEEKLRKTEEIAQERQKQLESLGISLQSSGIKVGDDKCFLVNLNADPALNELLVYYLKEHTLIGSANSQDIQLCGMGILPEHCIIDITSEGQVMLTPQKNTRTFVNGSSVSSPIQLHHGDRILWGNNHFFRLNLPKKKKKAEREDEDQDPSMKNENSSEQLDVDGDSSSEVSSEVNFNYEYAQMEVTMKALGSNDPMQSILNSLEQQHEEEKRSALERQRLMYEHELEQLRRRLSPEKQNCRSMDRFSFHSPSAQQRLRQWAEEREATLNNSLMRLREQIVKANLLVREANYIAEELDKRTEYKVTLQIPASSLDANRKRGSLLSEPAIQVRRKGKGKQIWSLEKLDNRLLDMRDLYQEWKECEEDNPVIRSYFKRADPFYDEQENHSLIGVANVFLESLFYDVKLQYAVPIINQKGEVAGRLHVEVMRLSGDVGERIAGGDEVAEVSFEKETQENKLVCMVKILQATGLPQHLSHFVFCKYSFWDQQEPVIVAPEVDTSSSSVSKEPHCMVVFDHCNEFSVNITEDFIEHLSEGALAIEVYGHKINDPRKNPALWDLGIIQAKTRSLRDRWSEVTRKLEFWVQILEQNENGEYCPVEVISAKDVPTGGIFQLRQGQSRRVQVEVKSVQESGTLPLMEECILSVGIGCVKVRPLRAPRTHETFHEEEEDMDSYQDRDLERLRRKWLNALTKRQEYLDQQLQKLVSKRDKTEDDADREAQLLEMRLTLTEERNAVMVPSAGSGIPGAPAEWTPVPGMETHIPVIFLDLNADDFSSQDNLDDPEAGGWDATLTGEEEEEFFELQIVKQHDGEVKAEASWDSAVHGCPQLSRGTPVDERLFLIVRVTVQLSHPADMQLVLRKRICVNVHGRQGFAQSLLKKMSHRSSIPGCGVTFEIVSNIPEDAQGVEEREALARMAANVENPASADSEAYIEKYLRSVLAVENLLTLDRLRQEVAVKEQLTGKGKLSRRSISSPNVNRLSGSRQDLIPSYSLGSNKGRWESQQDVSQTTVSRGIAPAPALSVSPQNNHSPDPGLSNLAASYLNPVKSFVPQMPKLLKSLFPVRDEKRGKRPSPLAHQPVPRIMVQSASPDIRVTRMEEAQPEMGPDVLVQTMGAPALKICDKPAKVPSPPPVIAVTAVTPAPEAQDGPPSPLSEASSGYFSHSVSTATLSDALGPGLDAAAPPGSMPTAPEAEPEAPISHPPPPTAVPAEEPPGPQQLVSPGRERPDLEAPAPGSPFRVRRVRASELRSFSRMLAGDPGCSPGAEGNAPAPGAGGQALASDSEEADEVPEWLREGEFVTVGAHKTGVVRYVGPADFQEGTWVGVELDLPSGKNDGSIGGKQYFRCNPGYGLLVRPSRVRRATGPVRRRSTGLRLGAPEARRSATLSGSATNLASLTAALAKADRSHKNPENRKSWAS
UniProt Q9HB40: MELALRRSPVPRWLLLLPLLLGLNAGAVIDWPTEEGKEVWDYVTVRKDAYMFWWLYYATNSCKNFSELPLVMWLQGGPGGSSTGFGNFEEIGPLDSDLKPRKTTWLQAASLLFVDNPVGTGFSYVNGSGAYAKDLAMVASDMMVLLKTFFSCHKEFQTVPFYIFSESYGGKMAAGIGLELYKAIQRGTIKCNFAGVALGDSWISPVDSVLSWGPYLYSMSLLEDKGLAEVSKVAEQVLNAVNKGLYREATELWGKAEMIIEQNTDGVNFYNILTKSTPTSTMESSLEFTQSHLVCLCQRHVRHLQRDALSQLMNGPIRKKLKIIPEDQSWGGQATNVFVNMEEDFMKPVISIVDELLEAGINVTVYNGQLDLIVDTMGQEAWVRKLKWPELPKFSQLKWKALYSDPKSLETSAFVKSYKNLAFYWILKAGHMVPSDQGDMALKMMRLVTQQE
UniProt Q9NR45: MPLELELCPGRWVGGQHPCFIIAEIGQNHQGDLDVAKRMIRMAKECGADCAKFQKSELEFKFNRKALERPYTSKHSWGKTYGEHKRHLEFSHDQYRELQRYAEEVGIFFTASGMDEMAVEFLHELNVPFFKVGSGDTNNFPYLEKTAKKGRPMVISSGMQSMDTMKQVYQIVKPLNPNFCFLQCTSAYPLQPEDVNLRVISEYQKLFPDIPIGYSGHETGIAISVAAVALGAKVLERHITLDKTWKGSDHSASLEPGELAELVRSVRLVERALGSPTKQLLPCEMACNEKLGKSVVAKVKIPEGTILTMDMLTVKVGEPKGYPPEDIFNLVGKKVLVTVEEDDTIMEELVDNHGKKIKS
UniProt Q9HBU6: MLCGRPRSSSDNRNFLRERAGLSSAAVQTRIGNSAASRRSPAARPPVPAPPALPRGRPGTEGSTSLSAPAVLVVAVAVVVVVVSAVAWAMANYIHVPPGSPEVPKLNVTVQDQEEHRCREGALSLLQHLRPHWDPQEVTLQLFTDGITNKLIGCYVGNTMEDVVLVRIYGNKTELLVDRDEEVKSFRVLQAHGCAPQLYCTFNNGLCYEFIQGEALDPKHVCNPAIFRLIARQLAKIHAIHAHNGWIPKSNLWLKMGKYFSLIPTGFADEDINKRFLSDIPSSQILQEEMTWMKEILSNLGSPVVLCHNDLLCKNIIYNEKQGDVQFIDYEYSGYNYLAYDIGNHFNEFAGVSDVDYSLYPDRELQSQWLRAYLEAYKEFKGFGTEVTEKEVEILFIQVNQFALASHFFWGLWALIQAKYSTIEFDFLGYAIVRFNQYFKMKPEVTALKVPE
UniProt Q9H7D7: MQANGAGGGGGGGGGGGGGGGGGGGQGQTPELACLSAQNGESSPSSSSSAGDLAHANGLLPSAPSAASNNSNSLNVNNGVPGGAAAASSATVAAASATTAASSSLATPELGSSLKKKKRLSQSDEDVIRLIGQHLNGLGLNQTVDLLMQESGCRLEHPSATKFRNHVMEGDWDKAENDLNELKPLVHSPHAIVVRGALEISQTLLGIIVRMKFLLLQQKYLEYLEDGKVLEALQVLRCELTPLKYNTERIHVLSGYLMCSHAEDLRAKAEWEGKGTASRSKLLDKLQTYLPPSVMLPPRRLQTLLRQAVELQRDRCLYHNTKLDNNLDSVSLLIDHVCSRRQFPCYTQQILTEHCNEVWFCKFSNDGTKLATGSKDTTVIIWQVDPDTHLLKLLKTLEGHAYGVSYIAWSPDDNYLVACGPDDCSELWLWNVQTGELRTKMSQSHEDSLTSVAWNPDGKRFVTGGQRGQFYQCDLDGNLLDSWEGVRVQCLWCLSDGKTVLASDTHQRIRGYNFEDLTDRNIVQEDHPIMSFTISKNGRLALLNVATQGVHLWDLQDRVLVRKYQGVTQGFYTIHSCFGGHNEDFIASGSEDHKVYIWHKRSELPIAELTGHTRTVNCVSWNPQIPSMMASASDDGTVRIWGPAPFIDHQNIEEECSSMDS
UniProt Q9H6F5: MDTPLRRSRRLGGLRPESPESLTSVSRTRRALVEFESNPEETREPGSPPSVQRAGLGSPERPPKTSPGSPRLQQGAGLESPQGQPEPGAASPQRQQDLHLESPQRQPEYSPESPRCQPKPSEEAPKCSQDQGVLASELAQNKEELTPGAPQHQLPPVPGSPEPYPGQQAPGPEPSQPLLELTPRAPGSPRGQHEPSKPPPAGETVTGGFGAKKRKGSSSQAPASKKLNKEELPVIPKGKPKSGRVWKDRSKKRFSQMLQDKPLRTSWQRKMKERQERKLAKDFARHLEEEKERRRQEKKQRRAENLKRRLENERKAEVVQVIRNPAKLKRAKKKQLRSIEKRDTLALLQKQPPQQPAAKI
UniProt Q9HBH5: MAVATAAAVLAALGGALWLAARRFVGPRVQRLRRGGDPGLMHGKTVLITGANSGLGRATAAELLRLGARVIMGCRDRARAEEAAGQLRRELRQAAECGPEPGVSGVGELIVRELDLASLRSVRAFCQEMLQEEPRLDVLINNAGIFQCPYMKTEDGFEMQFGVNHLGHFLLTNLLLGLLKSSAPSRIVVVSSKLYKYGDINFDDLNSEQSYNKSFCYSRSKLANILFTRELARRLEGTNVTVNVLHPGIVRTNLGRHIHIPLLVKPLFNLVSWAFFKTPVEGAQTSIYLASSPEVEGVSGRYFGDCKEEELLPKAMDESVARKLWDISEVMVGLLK
UniProt Q9HBL7: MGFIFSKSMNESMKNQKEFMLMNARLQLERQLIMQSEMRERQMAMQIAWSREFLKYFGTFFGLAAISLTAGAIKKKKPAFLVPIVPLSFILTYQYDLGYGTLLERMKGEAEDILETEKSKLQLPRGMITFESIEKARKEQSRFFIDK
UniProt Q9NPL8: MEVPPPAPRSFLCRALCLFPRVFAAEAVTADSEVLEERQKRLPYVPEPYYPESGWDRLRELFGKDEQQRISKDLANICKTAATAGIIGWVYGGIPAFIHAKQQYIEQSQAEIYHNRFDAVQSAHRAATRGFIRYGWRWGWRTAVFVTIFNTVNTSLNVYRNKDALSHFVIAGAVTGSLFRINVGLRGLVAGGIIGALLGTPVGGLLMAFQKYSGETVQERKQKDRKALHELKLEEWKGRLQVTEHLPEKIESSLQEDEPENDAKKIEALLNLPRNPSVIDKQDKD
UniProt Q9H6U6: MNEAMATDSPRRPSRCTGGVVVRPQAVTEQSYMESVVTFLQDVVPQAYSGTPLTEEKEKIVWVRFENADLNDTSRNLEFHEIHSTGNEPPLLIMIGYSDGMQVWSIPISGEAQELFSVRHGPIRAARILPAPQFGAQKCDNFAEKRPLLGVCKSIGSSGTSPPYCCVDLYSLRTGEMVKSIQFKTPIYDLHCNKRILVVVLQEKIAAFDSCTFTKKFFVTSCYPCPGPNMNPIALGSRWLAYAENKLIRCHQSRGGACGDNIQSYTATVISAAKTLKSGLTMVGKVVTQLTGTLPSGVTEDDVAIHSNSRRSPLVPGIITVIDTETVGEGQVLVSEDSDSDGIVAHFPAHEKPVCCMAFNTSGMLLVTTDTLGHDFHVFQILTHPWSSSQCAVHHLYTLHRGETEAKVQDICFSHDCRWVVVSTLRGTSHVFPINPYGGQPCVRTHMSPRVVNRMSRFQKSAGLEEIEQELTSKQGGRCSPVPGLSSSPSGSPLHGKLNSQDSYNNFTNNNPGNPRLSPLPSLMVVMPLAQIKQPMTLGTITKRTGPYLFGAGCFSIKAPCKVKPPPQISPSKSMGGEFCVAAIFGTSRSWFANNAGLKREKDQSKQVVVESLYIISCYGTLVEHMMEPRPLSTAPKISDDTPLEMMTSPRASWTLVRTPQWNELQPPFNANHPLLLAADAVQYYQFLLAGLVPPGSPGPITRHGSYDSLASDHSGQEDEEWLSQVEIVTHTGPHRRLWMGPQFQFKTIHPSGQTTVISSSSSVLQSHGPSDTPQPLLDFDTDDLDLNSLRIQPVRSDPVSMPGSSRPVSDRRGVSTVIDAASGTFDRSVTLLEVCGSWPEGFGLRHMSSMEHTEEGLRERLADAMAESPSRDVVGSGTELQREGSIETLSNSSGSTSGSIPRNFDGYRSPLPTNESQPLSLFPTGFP

Compound: Nc1nc2c(ncn2[C@@H]2O[C@H](COP(=O)(O)OP(=O)(O)OP(=O)(O)O)[C@@H](O)[C@H]2O)c(=O)[nH]1 [guanosine triphosphate]
Assay: NP40-soluble protein abundance relative to vehicle (solubility fold change) (ratio); higher = more soluble protein in presence of GTP
In short: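 Across three independent experiments, values are fold changes against the detergent-processed vehicle for each replicate, based on vsn-normalised intensities. The samples were Jurkat crude lysate treated with eight concentrations (0.1 to 10 mM) for 10 min at room temperature and then 3 min at 37 °C. Lysate was solubilised with 0.8% NP40 and benzonase, ultracentrifuged, and the supernatant analysed by TMT-labelled LC-MS/MS.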

Target	NP40-soluble protein abundance (concentration: 0.1mM)	NP40-soluble protein abundance (concentration: 0.5mM)	NP40-soluble protein abundance (concentration: 1mM)	NP40-soluble protein abundance (concentration: 2mM)	NP40-soluble protein abundance (concentration: 4mM)	NP40-soluble protein abundance (concentration: 6mM)	NP40-soluble protein abundance (concentration: 8mM)	NP40-soluble protein abundance (concentration: 10mM)
UniProt Q9C035 and related entries	1.05 ± 0.013	1.09 ± 0.012	1.02 ± 0.019	1.04 ± 0.023	1.02 ± 0.06	1.02 ± 0.017	0.998 ± 0.07	0.946 ± 0.059
SLC25A19 (UniProt Q9HC21)	1.09 ± 0.1	1.08 ± 0.11	1.01 ± 0.058	1.07 ± 0.12	1.13 ± 0.16	1.06 ± 0.17	1.04 ± 0.079	1.03 ± 0.11
UniProt Q9GZT3 and related entries	0.885 ± 0.11	0.866 ± 0.077	1 ± 0.13	1.01 ± 0.094	0.961 ± 0.066	0.996 ± 0.076	0.957 ± 0.15	1.09 ± 0.17
UniProt Q9BZL1	1.07 ± 0.053	0.9743 ± 0.0013	0.983 ± 0.06	1.0075 ± 0.00098	1.05 ± 0.16	1.06 ± 0.11	1.13 ± 0.19	1.06 ± 0.2
SNRK (UniProt Q9NRH2)	1.06 ± 0.025	1.02 ± 0.011	0.925 ± 0.049	0.98327 ± 0.00056	0.941 ± 0.02	0.854 ± 0.082	1.01 ± 0.036	0.932 ± 0.011
KIF13B (UniProt Q9NQT8)	1.05 ± 0.049	1.02 ± 0.038	1.041 ± 0.0075	1.02 ± 0.025	1.03 ± 0.032	0.992 ± 0.018	1.04 ± 0.034	0.964 ± 0.039
SCPEP1 (UniProt Q9HB40)	0.885 ± 0.027	0.846 ± 0.056	0.965 ± 0.029	0.941 ± 0.051	0.937 ± 0.054	0.932 ± 0.06	0.873 ± 0.054	0.912 ± 0.081
UniProt Q9H2U2 and related entries	0.947 ± 0.039	0.9839 ± 0.0093	0.909 ± 0.043	0.895 ± 0.028	0.862 ± 0.054	0.877 ± 0.032	0.857 ± 0.059	0.853 ± 0.058
AVEN (UniProt Q9NQS1)	0.799 ± 0.025	0.719 ± 0.076	0.905 ± 0.07	0.868 ± 0.096	0.96 ± 0.13	0.967 ± 0.08	0.973 ± 0.12	1.12 ± 0.021
UniProt Q9H5N1 and related entries	0.956 ± 0.012	0.9 ± 0.088	0.953 ± 0.025	0.966 ± 0.067	0.92 ± 0.054	0.937 ± 0.056	0.927 ± 0.047	0.94 ± 0.026
UniProt Q9H3N1	0.957 ± 0.055	0.947 ± 0.043	0.935 ± 0.04	0.871 ± 0.062	0.858 ± 0.071	0.878 ± 0.091	0.885 ± 0.053	0.859 ± 0.065
UniProt Q9NQ66 and related entries	1.03 ± 0.044	1.04 ± 0.046	1.01 ± 0.12	0.994 ± 0.082	0.977 ± 0.095	0.966 ± 0.086	0.989 ± 0.066	0.968 ± 0.095
UPF2 (UniProt Q9HAU5)	0.959 ± 0.048	1 ± 0.043	0.968 ± 0.03	0.979 ± 0.034	0.966 ± 0.033	0.978 ± 0.018	0.983 ± 0.047	0.987 ± 0.059
UniProt Q9H0P0 and related entries	0.955 ± 0.017	0.945 ± 0.013	0.925 ± 0.037	0.907 ± 0.067	0.892 ± 0.05	0.862 ± 0.043	0.864 ± 0.03	0.854 ± 0.048
HMG20A (UniProt Q9NP66)	0.922 ± 0.12	0.95 ± 0.12	1.15 ± 0.14	1.21 ± 0.04	1.23 ± 0.11	1.29 ± 0.12	1.31 ± 0.21	1.6 ± 0.35
RPRD1B (UniProt Q9NQG5)	0.862 ± 0.12	0.787 ± 0.09	1.09 ± 0.1	1.07 ± 0.051	1.09 ± 0.072	1.08 ± 0.07	0.93 ± 0.2	1.16 ± 0.13
UniProt Q9H3H1 and related entries	1.08 ± 0.12	1.11 ± 0.18	1.25 ± 0.12	1.14 ± 0.074	1.07 ± 0.096	1.17 ± 0.15	1.24 ± 0.24	1.09 ± 0.12
UniProt Q9H8G2	0.952 ± 0.098	0.944 ± 0.046	1.09 ± 0.13	1.1 ± 0.13	1.09 ± 0.088	1.15 ± 0.078	1.14 ± 0.052	1.25 ± 0.059
NANS (UniProt Q9NR45)	0.988 ± 0.042	1.01 ± 0.053	0.93 ± 0.035	0.914 ± 0.067	0.908 ± 0.066	0.895 ± 0.056	0.88 ± 0.04	0.86 ± 0.07
ETNK1 (UniProt Q9HBU6)	1.07 ± 0.077	1.06 ± 0.1	0.976 ± 0.065	0.978 ± 0.085	1.01 ± 0.072	0.953 ± 0.097	0.964 ± 0.053	0.947 ± 0.014
UniProt Q9H7D7 and related entries	1.15 ± 0.12	1.16 ± 0.14	1.17 ± 0.17	1.25 ± 0.22	1.28 ± 0.27	1.24 ± 0.27	1.25 ± 0.25	1.19 ± 0.2
TOLLIP (UniProt Q9H0E2)	0.947 ± 0.048	0.875 ± 0.059	0.938 ± 0.061	0.911 ± 0.055	0.901 ± 0.062	0.898 ± 0.064	0.887 ± 0.085	0.886 ± 0.073
ALG2 (UniProt Q9H553)	1.01 ± 0.15	1.04 ± 0.015	0.853 ± 0.024	0.983 ± 0.026	0.887 ± 0.033	0.934 ± 0.041	0.894 ± 0.04	0.928 ± 0.039
RAB33B (UniProt Q9H082)	1.1 ± 0.096	1.04 ± 0.074	0.927 ± 0.07	0.986 ± 0.14	0.98 ± 0.093	0.945 ± 0.12	0.904 ± 0.064	0.926 ± 0.072
CCDC86 (UniProt Q9H6F5)	1.02 ± 0.12	1 ± 0.099	1.14 ± 0.096	1.24 ± 0.14	1.36 ± 0.15	1.39 ± 0.11	1.33 ± 0.091	1.67 ± 0.28
RDH14 (UniProt Q9HBH5)	1.04 ± 0.077	1.04 ± 0.068	0.973 ± 0.086	1.01 ± 0.083	1.01 ± 0.085	0.959 ± 0.062	0.958 ± 0.089	0.939 ± 0.1
UniProt Q9HBL7	0.94558 ± 0.00013	0.9332 ± 0.0089	0.886 ± 0.026	0.883 ± 0.012	0.908 ± 0.026	0.846 ± 0.018	0.823 ± 0.014	0.8551 ± 0.0062
UniProt Q9NPL8	0.984 ± 0.047	1.02 ± 0.066	0.967 ± 0.05	0.946 ± 0.041	0.958 ± 0.015	0.956 ± 0.011	0.932 ± 0.04	0.946 ± 0.031
UniProt Q9H6U6 and related entries	1.01 ± 0.025	0.977 ± 0.029	1 ± 0.043	0.978 ± 0.03	0.974 ± 0.038	0.919 ± 0.022	0.957 ± 0.043	0.8795 ± 0.0066
UniProt Q9H8E8 and related entries	1.019 ± 0.0094	1.03 ± 0.12	1.12 ± 0.064	1.05 ± 0.17	1.01 ± 0.14	1.08 ± 0.091	1 ± 0.09	0.969 ± 0.094

Exported field by field: part of the list above.
CCDC86 (UniProt Q9H6F5)
  NP40-soluble protein abundance (concentration: 0.1mM): 1.02 ± 0.12
  NP40-soluble protein abundance (concentration: 0.5mM): 1 ± 0.099
  NP40-soluble protein abundance (concentration: 1mM): 1.14 ± 0.096
  NP40-soluble protein abundance (concentration: 2mM): 1.24 ± 0.14
  NP40-soluble protein abundance (concentration: 4mM): 1.36 ± 0.15
  NP40-soluble protein abundance (concentration: 6mM): 1.39 ± 0.11
  NP40-soluble protein abundance (concentration: 8mM): 1.33 ± 0.091
  NP40-soluble protein abundance (concentration: 10mM): 1.67 ± 0.28
RDH14 (UniProt Q9HBH5)
  NP40-soluble protein abundance (concentration: 0.1mM): 1.04 ± 0.077
  NP40-soluble protein abundance (concentration: 0.5mM): 1.04 ± 0.068
  NP40-soluble protein abundance (concentration: 1mM): 0.973 ± 0.086
  NP40-soluble protein abundance (concentration: 2mM): 1.01 ± 0.083
  NP40-soluble protein abundance (concentration: 4mM): 1.01 ± 0.085
  NP40-soluble protein abundance (concentration: 6mM): 0.959 ± 0.062
  NP40-soluble protein abundance (concentration: 8mM): 0.958 ± 0.089
  NP40-soluble protein abundance (concentration: 10mM): 0.939 ± 0.1
